Experimental data taken from patent publication US20090138978A1.
No constants are given. Whether binding was seen depends on the method and setting. In cells and extracts the contact can be indirect. Some binding calls cover weakened binding; strength is not graded here.

Protein sequences, listed by entry. Tags and fused reporters are not part of them. Lines headed by an entry give the natural chain unless they say otherwise; changes in a name come on top. Residues count along the entry.
GST-p300 (1-595) (Q09472, residues 1-595): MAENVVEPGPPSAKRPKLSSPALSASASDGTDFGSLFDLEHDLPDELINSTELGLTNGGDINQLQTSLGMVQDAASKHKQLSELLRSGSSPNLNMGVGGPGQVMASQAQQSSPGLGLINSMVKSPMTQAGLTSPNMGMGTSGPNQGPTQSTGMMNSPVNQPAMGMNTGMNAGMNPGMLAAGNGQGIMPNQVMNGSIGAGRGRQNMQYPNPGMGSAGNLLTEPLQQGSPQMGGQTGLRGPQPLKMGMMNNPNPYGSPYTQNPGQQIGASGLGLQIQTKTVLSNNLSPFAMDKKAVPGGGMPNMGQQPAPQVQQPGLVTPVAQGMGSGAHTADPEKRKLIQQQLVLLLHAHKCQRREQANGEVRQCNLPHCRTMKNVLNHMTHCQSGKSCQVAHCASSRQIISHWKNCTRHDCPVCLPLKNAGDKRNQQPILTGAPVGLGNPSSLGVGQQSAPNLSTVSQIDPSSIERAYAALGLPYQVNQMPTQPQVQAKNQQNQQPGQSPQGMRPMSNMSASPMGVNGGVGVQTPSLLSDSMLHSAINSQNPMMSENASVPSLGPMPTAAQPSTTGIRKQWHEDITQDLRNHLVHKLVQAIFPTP
GST-p300 (744-1571) (Q09472, residues 744-1571): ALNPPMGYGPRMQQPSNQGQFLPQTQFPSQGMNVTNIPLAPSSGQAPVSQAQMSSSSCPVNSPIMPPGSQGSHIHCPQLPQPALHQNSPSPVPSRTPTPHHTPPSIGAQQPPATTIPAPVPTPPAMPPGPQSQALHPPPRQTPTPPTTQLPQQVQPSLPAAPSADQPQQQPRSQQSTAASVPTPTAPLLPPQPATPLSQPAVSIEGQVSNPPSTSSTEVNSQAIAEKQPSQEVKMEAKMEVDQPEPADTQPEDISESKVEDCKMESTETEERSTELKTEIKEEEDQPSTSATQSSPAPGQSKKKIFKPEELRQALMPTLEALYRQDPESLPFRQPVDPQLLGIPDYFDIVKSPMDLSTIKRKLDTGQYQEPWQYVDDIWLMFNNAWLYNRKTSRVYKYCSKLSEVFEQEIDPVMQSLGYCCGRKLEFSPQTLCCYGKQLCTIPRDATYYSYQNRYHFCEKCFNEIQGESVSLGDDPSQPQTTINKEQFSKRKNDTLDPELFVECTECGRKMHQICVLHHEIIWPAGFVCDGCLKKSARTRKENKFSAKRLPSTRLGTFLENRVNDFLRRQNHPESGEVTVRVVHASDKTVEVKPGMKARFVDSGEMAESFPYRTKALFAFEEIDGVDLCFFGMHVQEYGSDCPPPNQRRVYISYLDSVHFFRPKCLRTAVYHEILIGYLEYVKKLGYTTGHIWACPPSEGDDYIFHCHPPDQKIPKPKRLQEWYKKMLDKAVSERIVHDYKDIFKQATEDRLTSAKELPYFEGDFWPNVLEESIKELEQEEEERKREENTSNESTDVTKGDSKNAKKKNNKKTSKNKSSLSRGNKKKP
UniProt P52947: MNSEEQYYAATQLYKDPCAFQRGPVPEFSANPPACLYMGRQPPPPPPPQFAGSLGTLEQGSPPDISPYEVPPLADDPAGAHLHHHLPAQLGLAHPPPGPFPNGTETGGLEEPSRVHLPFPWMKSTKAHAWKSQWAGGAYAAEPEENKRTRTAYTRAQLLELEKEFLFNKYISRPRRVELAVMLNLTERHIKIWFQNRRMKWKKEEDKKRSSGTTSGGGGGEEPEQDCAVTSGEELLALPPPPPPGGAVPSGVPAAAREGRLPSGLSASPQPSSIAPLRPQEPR
GST-PDX-1 (1-206): residues 1-206 of P52947

Assays:
GST-p300 (744-1571) = GST-p300 (744-1571) (UniProt Q09472); assay: GST pull-down with [35S]-labelled in vitro translated Bridge-1
GST-p300 (1-595) = GST-p300 (1-595) (UniProt Q09472); assay: as above
GST-PDX-1 (1-206) (rat) [1] = biological target: GST-PDX-1 (1-206) (rat) (UniProt P52947); assay: GST pull-down, autoradiogram (FIG. 23c)
GST-PDX-1 (1-206) (rat) [2] = biological target: GST-PDX-1 (1-206) (rat) (UniProt P52947); assay: GST pull-down with [35S]-labelled in vitro translated rat Bridge-1
[3] = biological target: GST-PDX-1 (full-length rat PDX-1) (rat) (UniProt P52947); assay: as above

binding (GST-p300 (744-1571)): binds | binding (GST-p300 (1-595)): binds | binding (GST-PDX-1 (1-206) (rat) [1]): binds | binding (GST-PDX-1 (1-206) (rat) [2]): binds | binding [3]: binds
B1: rat Bridge-1 (full-length, 1-222) (protein)
chain: MSSEEVRHRAESSEARAAAVSDIQELMRRKEEIEAQIKANYDVLESQKGIGMNEPLVDCEGYPRADVDLYQVRTARHNIICLQNDHKALMKQVEEALHQLHARDKEKQARDMAEAREEAMNRRLASDSPALPKAFARVNSISPGSPASIAGLQVDDEIVEFGSVNTQNFQSLQNVGTVVQHSEGKPLNVMVIRRGEKHQLRLTPTRWAGKGLLGCNITPLQR
modifications: [35S]-methionine labelled in the pull-down assays
